Some of the results follow.
How the values were obtained:
Test in all cases: log2 fold change, soluble protein after heating vs DMSO (PISA); higher = thermal stabilisation; K562 lysate, 10 uM; active = over 0.2 and 3.5 SD of the protein, either way, in both replicates (recomputed)
[1] = compound: CS(=O)(=O)CCNCc1ccc(-c2ccc3ncnc(Nc4ccc(OCc5cccc(F)c5)c(Cl)c4)c3c2)o1 [lapatinib]
How it was run: (§1)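 To prepare the extract, K562 pellets were dounce-homogenised in PBS pH 7.4 with 1 mM MgCl2, giving crude material at 1 mg/mL protein. This was treated with 10 μM compound for 30 min, then heated in aliquots for 3 min over 48°C-58°C before pooling and addition of NP-40 to 0.5% at 4°C. Centrifugation at 21,000xg for 90 min left soluble protein in the supernatant, which TMTpro 16plex LC-MS/MS quantified with equalised channel sums. Results are log-two fold changes in thermal stability compared with solvent controls, from duplicates.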

Chains of the proteins cited; added tags and fusions are not shown. Lines headed by an entry give the natural chain unless they say otherwise; changes in a name come on top.
UniProt Q12983, whole entry, looked up: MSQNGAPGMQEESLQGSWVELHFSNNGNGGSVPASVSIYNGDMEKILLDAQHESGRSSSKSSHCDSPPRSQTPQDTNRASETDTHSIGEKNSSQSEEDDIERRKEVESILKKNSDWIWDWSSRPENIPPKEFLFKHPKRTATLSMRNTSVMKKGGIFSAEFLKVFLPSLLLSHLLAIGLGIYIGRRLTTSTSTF
UniProt Q13490, whole entry, looked up: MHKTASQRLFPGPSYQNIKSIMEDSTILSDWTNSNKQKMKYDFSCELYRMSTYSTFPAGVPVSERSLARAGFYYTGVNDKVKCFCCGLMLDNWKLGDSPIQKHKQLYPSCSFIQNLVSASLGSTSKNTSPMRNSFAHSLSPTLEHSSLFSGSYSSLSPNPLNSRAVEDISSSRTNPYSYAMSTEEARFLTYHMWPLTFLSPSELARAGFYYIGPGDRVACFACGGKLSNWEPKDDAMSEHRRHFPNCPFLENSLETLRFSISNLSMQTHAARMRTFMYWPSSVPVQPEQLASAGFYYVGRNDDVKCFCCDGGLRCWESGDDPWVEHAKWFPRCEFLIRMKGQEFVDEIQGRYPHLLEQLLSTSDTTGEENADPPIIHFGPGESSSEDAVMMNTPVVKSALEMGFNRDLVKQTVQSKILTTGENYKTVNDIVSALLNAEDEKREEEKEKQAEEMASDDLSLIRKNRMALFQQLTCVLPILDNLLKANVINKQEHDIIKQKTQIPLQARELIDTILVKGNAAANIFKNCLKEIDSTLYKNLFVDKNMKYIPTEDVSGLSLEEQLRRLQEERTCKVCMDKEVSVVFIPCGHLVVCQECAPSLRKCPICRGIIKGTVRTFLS
UniProt Q6QNY0: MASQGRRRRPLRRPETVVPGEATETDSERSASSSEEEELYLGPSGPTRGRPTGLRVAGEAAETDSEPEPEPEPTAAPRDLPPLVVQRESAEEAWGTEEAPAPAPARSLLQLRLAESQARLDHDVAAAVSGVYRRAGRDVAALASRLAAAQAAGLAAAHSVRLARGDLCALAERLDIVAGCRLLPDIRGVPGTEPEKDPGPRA
UniProt Q96KE9: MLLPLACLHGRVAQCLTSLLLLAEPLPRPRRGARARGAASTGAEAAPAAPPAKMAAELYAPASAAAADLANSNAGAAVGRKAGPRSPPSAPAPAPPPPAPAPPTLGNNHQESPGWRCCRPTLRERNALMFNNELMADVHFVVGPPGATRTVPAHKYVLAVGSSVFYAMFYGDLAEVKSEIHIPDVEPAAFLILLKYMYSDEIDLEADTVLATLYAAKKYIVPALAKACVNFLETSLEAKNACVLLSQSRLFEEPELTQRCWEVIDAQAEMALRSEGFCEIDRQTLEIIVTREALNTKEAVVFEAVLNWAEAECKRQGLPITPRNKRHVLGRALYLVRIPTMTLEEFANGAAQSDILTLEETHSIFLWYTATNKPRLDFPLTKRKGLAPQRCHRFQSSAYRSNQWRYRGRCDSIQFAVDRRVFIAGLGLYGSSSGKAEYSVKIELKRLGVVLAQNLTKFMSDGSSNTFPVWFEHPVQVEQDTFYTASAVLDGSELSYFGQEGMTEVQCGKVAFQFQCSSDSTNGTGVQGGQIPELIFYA
UniProt Q8TDN6: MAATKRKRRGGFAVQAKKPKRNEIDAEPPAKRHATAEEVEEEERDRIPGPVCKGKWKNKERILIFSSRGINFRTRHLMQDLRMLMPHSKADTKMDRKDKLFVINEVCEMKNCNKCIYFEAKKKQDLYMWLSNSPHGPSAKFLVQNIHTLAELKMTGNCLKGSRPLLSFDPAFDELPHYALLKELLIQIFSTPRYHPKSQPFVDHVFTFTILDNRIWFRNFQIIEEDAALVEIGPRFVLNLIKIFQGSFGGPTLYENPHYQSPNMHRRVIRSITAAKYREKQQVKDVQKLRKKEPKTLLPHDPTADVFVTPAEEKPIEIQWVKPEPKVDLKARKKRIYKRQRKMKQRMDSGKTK
UniProt Q92843: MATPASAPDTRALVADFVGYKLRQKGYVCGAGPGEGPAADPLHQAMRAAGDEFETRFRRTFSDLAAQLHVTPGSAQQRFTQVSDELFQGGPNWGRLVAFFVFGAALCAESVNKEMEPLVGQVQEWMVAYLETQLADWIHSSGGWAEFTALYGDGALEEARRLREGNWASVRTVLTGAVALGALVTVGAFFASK
UniProt P55957: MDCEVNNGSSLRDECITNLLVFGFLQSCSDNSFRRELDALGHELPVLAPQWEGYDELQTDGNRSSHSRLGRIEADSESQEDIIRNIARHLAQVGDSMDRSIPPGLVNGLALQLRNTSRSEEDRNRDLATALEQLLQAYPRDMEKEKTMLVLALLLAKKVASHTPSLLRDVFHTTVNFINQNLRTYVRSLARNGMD
UniProt P30043: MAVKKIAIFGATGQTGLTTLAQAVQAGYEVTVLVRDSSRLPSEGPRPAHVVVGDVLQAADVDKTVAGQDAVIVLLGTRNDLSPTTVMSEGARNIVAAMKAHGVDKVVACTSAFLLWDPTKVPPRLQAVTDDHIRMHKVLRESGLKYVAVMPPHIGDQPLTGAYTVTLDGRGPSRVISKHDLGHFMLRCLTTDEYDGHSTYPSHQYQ
UniProt Q8NFC6: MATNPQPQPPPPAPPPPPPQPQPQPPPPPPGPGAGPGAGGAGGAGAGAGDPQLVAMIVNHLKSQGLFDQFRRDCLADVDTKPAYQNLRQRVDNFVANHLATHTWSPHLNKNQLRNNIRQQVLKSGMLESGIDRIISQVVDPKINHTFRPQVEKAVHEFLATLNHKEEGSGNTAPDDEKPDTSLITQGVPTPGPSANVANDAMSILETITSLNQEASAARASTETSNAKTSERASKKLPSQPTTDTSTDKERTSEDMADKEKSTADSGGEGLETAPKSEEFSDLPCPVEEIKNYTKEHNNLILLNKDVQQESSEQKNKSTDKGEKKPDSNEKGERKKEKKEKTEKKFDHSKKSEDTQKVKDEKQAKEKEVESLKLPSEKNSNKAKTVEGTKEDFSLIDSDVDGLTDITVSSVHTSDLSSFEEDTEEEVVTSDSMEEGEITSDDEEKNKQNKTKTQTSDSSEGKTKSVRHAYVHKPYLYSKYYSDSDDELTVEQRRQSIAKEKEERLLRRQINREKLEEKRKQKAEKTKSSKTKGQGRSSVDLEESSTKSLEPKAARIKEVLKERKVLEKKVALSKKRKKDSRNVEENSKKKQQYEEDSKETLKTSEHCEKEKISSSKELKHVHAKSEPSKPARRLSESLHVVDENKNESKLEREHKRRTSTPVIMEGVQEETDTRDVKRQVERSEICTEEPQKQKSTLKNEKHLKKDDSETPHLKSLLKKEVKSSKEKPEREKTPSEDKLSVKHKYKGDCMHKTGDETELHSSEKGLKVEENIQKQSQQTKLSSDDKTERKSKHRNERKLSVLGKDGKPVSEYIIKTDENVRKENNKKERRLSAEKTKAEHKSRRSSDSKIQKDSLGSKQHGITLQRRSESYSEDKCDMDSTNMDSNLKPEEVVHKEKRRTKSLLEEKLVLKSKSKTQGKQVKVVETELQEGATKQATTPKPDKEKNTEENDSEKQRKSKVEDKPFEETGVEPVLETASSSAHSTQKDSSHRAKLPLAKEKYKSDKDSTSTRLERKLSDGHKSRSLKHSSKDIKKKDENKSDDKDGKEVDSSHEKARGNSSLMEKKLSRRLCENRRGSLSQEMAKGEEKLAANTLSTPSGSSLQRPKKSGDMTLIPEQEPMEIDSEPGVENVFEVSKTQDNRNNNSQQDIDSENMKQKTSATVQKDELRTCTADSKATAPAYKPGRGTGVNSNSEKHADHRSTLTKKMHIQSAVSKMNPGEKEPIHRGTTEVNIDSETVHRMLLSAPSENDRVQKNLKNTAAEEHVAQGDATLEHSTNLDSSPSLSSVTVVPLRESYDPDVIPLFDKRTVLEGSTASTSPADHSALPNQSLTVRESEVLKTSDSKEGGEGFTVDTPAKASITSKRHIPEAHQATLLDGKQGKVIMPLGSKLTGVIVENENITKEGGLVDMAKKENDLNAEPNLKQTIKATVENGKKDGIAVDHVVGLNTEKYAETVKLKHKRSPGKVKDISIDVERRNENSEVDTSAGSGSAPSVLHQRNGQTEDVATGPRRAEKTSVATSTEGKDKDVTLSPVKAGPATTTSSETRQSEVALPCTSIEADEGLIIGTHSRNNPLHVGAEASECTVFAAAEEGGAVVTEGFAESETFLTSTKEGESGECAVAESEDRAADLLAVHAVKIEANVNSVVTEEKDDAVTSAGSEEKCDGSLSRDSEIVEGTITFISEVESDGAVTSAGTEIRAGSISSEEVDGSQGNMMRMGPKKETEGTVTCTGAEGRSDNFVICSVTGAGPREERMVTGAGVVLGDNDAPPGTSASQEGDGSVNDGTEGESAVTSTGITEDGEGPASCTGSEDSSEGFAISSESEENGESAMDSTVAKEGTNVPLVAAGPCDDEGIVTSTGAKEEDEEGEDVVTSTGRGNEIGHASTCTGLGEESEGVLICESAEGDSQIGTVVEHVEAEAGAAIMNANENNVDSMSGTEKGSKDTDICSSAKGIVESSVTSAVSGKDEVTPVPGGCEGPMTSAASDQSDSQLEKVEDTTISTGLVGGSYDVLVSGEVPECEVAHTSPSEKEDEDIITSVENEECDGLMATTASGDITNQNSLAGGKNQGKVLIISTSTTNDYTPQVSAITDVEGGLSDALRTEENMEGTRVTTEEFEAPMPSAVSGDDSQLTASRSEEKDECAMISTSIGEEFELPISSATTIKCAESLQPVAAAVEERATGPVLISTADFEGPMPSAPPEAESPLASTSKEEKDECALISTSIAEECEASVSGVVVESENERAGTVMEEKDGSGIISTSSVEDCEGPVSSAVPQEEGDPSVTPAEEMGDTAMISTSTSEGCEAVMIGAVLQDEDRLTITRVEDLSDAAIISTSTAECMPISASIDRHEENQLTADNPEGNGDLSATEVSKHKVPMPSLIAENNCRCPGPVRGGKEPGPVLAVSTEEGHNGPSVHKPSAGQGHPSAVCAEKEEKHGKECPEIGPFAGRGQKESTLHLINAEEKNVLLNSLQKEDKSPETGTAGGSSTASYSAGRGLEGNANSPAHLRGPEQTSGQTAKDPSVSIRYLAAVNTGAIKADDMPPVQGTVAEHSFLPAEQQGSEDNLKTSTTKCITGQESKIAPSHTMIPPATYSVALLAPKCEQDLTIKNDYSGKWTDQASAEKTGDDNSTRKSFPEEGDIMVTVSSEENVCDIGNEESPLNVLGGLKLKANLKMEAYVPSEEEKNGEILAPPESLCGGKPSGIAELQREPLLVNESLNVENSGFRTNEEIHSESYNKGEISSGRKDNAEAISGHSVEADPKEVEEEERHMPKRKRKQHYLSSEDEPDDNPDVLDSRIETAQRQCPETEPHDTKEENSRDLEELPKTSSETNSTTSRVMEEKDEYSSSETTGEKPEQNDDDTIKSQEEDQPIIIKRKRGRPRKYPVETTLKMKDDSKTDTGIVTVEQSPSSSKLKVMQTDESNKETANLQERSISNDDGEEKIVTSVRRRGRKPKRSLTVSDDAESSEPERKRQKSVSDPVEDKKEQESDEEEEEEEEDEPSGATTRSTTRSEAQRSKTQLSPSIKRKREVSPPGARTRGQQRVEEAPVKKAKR
UniProt O15382: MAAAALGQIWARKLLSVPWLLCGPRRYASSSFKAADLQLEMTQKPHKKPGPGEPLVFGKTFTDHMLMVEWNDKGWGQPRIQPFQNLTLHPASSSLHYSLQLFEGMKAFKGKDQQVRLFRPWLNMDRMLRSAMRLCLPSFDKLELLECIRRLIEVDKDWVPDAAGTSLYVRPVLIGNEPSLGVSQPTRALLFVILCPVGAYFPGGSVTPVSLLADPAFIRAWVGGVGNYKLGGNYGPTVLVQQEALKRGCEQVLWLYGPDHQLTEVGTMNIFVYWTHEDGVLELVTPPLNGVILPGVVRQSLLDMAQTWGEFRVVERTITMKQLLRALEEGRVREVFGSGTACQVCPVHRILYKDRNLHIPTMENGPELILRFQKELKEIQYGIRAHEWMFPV
UniProt Q9Y276: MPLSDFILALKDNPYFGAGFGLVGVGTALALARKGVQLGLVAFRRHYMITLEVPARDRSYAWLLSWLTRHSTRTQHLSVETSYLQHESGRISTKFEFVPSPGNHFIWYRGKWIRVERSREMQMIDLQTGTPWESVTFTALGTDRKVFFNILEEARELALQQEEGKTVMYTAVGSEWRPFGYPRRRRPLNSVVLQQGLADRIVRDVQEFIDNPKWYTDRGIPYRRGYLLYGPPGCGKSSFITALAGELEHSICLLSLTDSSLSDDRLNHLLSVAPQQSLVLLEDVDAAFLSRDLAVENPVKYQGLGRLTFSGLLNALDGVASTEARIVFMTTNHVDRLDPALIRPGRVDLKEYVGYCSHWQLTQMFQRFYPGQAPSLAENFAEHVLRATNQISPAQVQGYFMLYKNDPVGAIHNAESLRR

[2] = compound: CS(=O)(=O)N1CCN(Cc2cc3nc(-c4cccc5[nH]ncc45)nc(N4CCOCC4)c3s2)CC1 [pictilisib]
How it was run: as §1

[3] = compound: C[C@@H](Oc1cc(-c2cnn(C3CCNCC3)c2)cnc1N)c1c(Cl)ccc(F)c1Cl [crizotinib]
How it was run: as §1

[4] = compound: C[C@H](C1=CC=C(C=C1)C(=O)NC2=C3C=CNC3=NC=C2)N
How it was run: as §1

[5] = compound: C[C@H](Nc1ncnc2nc[nH]c12)c1cc2cccc(Cl)c2c(=O)n1-c1ccccc1 [duvelisib]
How it was run: as §1

[6] = compound: Cc1cc(Nc2cc(CN3CCOCC3)c3nc(C)c(Cc4ccc(Cl)cc4F)n3n2)n[nH]1 [gandotinib]
How it was run: as §1

[7] = compound: Cc1cc(Nc2cc(N3CCN(C)CC3)nc(Sc3ccc(NC(=O)C4CC4)cc3)n2)n[nH]1 [tozasertib]
How it was run: as §1

[8] = compound: Cc1ccc(-n2nc(C(C)(C)C)cc2NC(=O)Nc2ccc(OCCN3CCOCC3)c3ccccc23)cc1 [doramapimod]
How it was run: as §1

[9] = compound: Cc1ccc(NC(=O)c2ccc(CN3CC[C@H](N(C)C)C3)c(C(F)(F)F)c2)cc1Nc1nccc(-c2cncnc2)n1 [bafetinib]
How it was run: as §1

[10] = compound: Cc1cccc(CC(=O)N2CCc3c2ccc(-c2cn(C)c4ncnc(N)c24)c3F)n1
How it was run: as §1

Measured: log2 fold change

BNIP3 (UniProt Q12983)
active: [4] -0.371
inactive: [1] -0.031 | [2] 0.049 | [3] -0.054 | [5] -0.166 | [6] 0.107 | [7] -0.046 | [8] -0.016 | [9] 0.023 | [10] 0.14

BIRC2 (UniProt Q13490)
inactive: [1] 0.025 | [2] -0.015 | [3] 0.012 | [4] -0.016 | [5] -0.027 | [6] 0.005 | [7] 0.007 | [8] -0.001 | [9] -0.168 | [10] 0.013

BTAF1 (UniProt O14981)
inactive: [1] 0.015 | [2] -0.043 | [3] -0.041 | [4] -0.137 | [5] 0.011 | [6] -0.004 | [7] 0 | [8] 0.046 | [9] -0.056 | [10] 0.093

BRK1 isoform 2 (UniProt Q8WUW1)
inactive: [1] 0.021 | [2] 0.009 | [3] 0.095 | [4] 0.162 | [5] 0.001 | [6] -0.148 | [7] -0.001 | [8] 0 | [9] 0.005 | [10] -0.072

BLOC1S3 (UniProt Q6QNY0)
inactive: [1] 0.019 | [2] -0.007 | [3] 0.002 | [4] -0.026 | [5] -0.014 | [6] 0.081 | [7] -0.023 | [8] 0.03 | [9] -0.047 | [10] -0.018

BLOC1S6 (UniProt Q9UL45)
inactive: [1] -0.018 | [2] -0.037 | [3] 0.062 | [4] 0.048 | [5] 0.021 | [6] 0.031 | [7] -0.11 | [8] -0.011 | [9] 0.033 | [10] -0.066

BAP1 (UniProt Q92560)
inactive: [1] -0.036 | [2] -0.155 | [3] 0.045 | [4] -0.066 | [5] 0.037 | [6] 0.029 | [7] -0.025 | [8] -0.069 | [9] -0.081 | [10] -0.018

Looked up one by one from above, two records:
BLOC1S6 (UniProt Q9UL45)
inactive: [1] -0.018 | [2] -0.037 | [3] 0.062 | [4] 0.048 | [5] 0.021 | [6] 0.031 | [7] -0.11 | [8] -0.011 | [9] 0.033 | [10] -0.066

BLOC1S3 (UniProt Q6QNY0)
inactive: [1] 0.019 | [2] -0.007 | [3] 0.002 | [4] -0.026 | [5] -0.014 | [6] 0.081 | [7] -0.023 | [8] 0.03 | [9] -0.047 | [10] -0.018

Next records follow.

BTBD6 (UniProt Q96KE9)
inactive: [1] -0.149 | [2] 0.025 | [3] -0.342 | [4] -0.487 | [5] 0.1 | [6] 0.482 | [7] 0 | [8] -0.001 | [9] -0.08 | [10] 0.529

BLM (UniProt P54132)
active: [6] -0.267
inactive: [1] -0.007 | [2] -0.068 | [3] -0.003 | [4] 0.192 | [5] 0.018 | [7] 0.057 | [8] 0.018 | [9] -0.049 | [10] -0.251

BLMH (UniProt Q13867)
inactive: [1] -0.031 | [2] 0.015 | [3] 0.016 | [4] -0.022 | [5] -0.002 | [6] 0.088 | [7] -0.004 | [8] 0.005 | [9] 0.057 | [10] 0.015

BRIX1 (UniProt Q8TDN6)
inactive: [1] -0.017 | [2] -0.01 | [3] -0.002 | [4] 0.007 | [5] 0.001 | [6] 0.01 | [7] -0.031 | [8] -0.037 | [9] -0.022 | [10] 0.001

BACH1 (UniProt O14867)
inactive: [1] 0.06 | [2] -0.034 | [3] -0.005 | [4] -0.006 | [5] 0.043 | [6] 0.027 | [7] 0.027 | [8] 0.019 | [9] 0 | [10] 0.004

BRD3 (UniProt Q15059)
active: [4] -0.333
inactive: [1] 0.014 | [2] 0.004 | [3] -0.022 | [5] 0.1 | [6] 0.147 | [7] 0.048 | [8] -0.074 | [9] -0.016 | [10] 0.154

BCL2L2 isoform 2 (UniProt Q92843)
inactive: [1] -0.028 | [2] 0.025 | [3] -0.002 | [4] 0.001 | [5] -0.02 | [6] 0.039 | [7] -0.017 | [8] 0.035 | [9] -0.064 | [10] 0.028

BCOR (UniProt Q6W2J9)
inactive: [1] -0.099 | [2] 0.085 | [3] -0.216 | [4] -0.362 | [5] 0.05 | [6] 0.152 | [7] 0.045 | [8] -0.058 | [9] -0.087 | [10] 0.369

BID isoform 2 (UniProt P55957)
inactive: [1] 0.061 | [2] 0.049 | [3] -0.001 | [4] -0.015 | [5] 0.063 | [6] -0.006 | [7] 0.031 | [8] -0.038 | [9] 0.037 | [10] -0.064

BRCA1 isoform 7 (UniProt P38398)
inactive: [1] -0.152 | [2] -0.066 | [3] -0.119 | [4] 0.021 | [5] 0.003 | [6] -0.082 | [7] 0.012 | [8] 0.062 | [9] -0.016 | [10] 0.006

BLVRB (UniProt P30043)
inactive: [1] 0.004 | [2] 0.01 | [3] -0.035 | [4] -0.024 | [5] 0.042 | [6] -0.045 | [7] 0.03 | [8] 0.023 | [9] -0.001 | [10] 0.028

BMP2K (UniProt Q9NSY1)
inactive: [1] -0.106 | [2] 0.374 | [3] 0.595 | [4] 0.762 | [5] -0.012 | [6] 0.845 | [7] 0.391 | [8] -0.026 | [9] -0.041 | [10] -0.076

BOD1L1 (UniProt Q8NFC6)
inactive: [1] 0 | [2] -0.023 | [3] 0.016 | [4] -0.023 | [5] 0.017 | [6] 0.072 | [7] 0.009 | [8] -0.006 | [9] -0.017 | [10] 0.04

BCAT2 (UniProt O15382)
inactive: [1] -0.009 | [2] -0.021 | [3] 0.028 | [4] -0.034 | [5] 0.019 | [6] 0.04 | [7] -0.031 | [8] -0.016 | [9] 0.062 | [10] -0.011

BICD2 isoform 2 (UniProt Q8TD16)
inactive: [1] -0.012 | [2] -0.031 | [3] 0.025 | [4] -0.015 | [5] 0.036 | [6] 0.011 | [7] 0.038 | [8] 0.006 | [9] 0.007 | [10] 0.001

BCL7C (UniProt Q8WUZ0)
inactive: [1] 0.041 | [2] 0 | [3] -0.18 | [4] -0.005 | [5] -0.103 | [6] 0.05 | [7] 0.086 | [8] -0.168 | [9] -0.073 | [10] 0.014

BANF1 (UniProt O75531)
inactive: [1] 0.037 | [2] 0.024 | [3] 0.023 | [4] -0.14 | [5] 0.014 | [6] 0.046 | [7] -0.05 | [8] -0.053 | [9] 0.023 | [10] 0.078

BCLAF1 (UniProt Q9NYF8)
inactive: [1] -0.001 | [2] 0.036 | [3] 0.009 | [4] 0.088 | [5] -0.011 | [6] -0.024 | [7] -0.12 | [8] -0.032 | [9] -0.014 | [10] 0.012

BCS1L (UniProt Q9Y276)
inactive: [1] -0.022 | [2] -0.056 | [3] -0.117 | [4] 0.136 | [5] -0.116 | [6] -0.156 | [7] 0.018 | [8] -0.01 | [9] 0.013 | [10] 0.028

BPHL (UniProt Q86WA6)
active: [2] -0.366
inactive: [1] -0.099 | [3] 0.099 | [4] 0.051 | [5] 0.061 | [6] -0.077 | [7] 0.034 | [8] -0.003 | [9] 0.132 | [10] -0.058

Reference: the supplement of paper PMC10849652
